The values that follow are results of earlier work, collected in US9771430B2, “Method of treating a metabolic disorder induced by obesity in a subject in need thereof by administering MK2/3 inhibitors” (THE TRUSTEES OF COLUMBIA UNIVERSITY IN THE CITY OF NEW YORK, priority 2011, dated 2017).

This data set deals with IL-1 and TNF-α production. Particulars: read-out: IC50 IL-1 and TNF-α production; LPS-stimulated human monocytes and THP-1; cited from earlier work.

Consider `C[S+]([O-])c1ccc(-c2nc(-c3ccncc3)c(-c3ccc(F)cc3)[nH]2)cc1` (stereo not shown) [SB203580], for which the IC50 is 50 to 100 nM.
